Laboratory results: PMC8040478
No constants are given. Whether binding was seen depends on the method and setting. In cells and extracts the contact can be indirect. Some results given as binding are weak or reduced against the parent protein; the word gives no strength.

Chains of the proteins cited; added tags and fusions are not shown. Residues count along the entry.
UniProt P49134, residues 21-799: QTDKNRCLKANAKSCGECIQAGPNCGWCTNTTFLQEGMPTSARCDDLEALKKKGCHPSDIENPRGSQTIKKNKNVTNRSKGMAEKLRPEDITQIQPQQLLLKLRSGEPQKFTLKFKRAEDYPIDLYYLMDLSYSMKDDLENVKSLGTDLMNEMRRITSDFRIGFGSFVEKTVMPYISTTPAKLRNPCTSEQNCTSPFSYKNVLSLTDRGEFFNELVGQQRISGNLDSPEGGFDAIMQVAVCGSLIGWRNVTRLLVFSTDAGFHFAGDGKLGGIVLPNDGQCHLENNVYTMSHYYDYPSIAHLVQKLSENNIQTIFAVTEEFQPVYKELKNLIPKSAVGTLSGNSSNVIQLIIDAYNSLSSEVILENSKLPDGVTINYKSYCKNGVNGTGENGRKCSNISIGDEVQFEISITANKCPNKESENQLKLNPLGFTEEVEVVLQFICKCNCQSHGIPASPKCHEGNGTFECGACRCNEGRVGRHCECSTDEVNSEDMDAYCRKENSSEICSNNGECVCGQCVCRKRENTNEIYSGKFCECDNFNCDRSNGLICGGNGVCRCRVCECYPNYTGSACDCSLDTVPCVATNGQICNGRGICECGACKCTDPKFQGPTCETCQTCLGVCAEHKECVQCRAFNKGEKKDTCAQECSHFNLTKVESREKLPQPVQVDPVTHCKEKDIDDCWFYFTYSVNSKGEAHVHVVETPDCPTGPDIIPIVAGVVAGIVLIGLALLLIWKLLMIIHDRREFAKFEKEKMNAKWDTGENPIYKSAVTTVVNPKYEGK
UniProt Q7TQN4: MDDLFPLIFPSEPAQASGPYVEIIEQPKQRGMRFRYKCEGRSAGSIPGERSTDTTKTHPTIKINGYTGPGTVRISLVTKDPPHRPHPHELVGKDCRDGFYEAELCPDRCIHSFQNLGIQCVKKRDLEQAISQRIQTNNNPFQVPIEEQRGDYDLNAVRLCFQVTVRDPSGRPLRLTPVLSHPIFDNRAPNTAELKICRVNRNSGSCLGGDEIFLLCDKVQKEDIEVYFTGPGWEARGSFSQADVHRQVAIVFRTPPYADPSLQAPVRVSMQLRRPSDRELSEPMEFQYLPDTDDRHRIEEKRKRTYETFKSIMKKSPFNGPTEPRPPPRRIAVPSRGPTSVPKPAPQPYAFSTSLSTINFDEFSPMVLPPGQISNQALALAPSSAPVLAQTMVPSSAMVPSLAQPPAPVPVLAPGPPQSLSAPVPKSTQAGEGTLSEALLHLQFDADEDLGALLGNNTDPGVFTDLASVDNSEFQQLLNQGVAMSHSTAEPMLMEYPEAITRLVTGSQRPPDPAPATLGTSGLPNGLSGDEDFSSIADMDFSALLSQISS

T1: Caveolin-1 (overexpressed from pEX4-Cav1) (UniProt P41350)
T1 sequence: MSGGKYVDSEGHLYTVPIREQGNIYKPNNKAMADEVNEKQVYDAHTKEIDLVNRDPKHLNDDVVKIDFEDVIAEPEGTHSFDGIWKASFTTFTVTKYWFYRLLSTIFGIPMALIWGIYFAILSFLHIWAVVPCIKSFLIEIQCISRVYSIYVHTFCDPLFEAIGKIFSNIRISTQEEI


Tests used:
[1] = target: T1, Caveolin-1 (overexpressed from pEX4-Cav1); test: co-IP; rat AFCs transfected with pEX4-Cav1 or pcDNA3.1-Integrin β1 for 48 h; modified RIPA lysate, pre-cleared; 1 μg anti-Cav1, anti-integrin β1 or IgG overnight at 4 °C; Agarose A+G; Western blot
[2] = target: Integrin β1 (overexpressed from pcDNA3.1-Integrin β1) (UniProt P49134); test: as above

| binding [1] | binding [2] | Molecule |
| --- | --- | --- |
| binds | – | Integrin β1 (endogenous in AFCs) (from UniProt P49134 21-799) (receptor) |
| no binding | no binding | p65 (NF-κB subunit) (from UniProt Q7TQN4 1-550) |
| – | binds | Caveolin-1 (endogenous in AFCs) (protein, UniProt P41350 1-178) MSGGKYVDSEGHLYTVPIREQGNIYKPNNKAMADEVNEKQVYDAHTKEIDLVNRDPKHLNDDVVKIDFEDVIAEPEGTHSFDGIWKASFTTFTVTKYWFYRLLSTIFGIPMALIWGIYFAILSFLHIWAVVPCIKSFLIEIQCISRVYSIYVHTFCDPLFEAIGKIFSNIRISTQEEI |
